# Among all 320,000 compounds or so, about 2,100 (0.66%) were called active. Inconclusive means that the source gave no clear call. Such entries were picked first, then a sample of the others. The call rests on the fitted dose curve; in most records, active means well fitted inhibition curve with a large enough effect in the signal ratio, with a control signal flat (not every such curve was filed as active); inconclusive means small, poorly fitted or top-dose-only effect, or effect the other way, or a change in a side signal; inactive means flat fitted curve, though single readings scatter; the % refers to the signal ratio. Potencies of inconclusive entries are doubtful fits and often do not repeat.
# Assay: qHTS Assay for Lipid Storage Modulators in Drosophila S3 Cells
# Conditions: BODIPY lipid droplet fluorescence, 18-24 h, cells fed with added oleic acid; lipid storage change, negative = inhibition: at 46.1 µM (top of the series) unless noted
# Method in brief: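 Drosophila S3 cells loaded with oleic acid (400 uM, as added) and compounds at several concentrations; lipid droplets imaged by 488-nm laser-scanning cytometry, 500–530 nm intensity and object ratio to cell channel. Percent activity normalized to 20 uM Triacsin C.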
# On the % scale 0 is the no-effect control and ±100 the full control effect; potency means the concentration at half of the fitted maximal effect.
Structure (SMILES),"lipid storage change, negative = inhibition",Potency
COc1ccc(-c2nc(N)ncc2-c2ccccc2)c(O)c1,inconclusive: -17.9%,–
COc1ccc(C(CNC(=O)c2ccc(-c3cccc(C(F)(F)F)c3)o2)N2CCOCC2)cc1 (centres undefined),–,"inconclusive: 0.0461 µM [activator, full curve, poor fit]"
Clc1ccc(-c2cn(-c3ccc(Cl)cc3)c3[n+]2CCCCC3)cc1,inconclusive: 12.2%,–
CCN(CC(=O)Nc1ccccc1C(F)(F)F)C(=O)c1cccc(N2C(=O)CCC2=O)c1,inconclusive: 10.9%,–
CCCCn1c(N)c(N(CCOC)C(=O)c2cccc(S(=O)(=O)N3CCCCC3)c2)c(=O)[nH]c1=O,inconclusive,–
COc1ccc(C2C(C(C)=O)=C(O)C(=O)N2Cc2ccccc2)c(OC)c1 (centres undefined),inconclusive: -30.6%,–
COc1cc(OC)cc(C(=O)NCC(=O)N2CCCCCCC2)c1,inconclusive: 6.69%,–
O=C(COC(=O)c1ccc(O)cc1O)NC1CCS(=O)(=O)C1 (centres undefined),–,"inconclusive: 1.3 µM [falling, full curve, poor fit]"
Cc1ccc2nc(/N=C(\N)NC(=O)N3c4ccccc4Sc4ccccc43)nc(C)c2c1,inconclusive: 16.7%,–
CC(C)N(CCNC(=O)c1ccc(CS(=O)(=O)c2c(Cl)cccc2Cl)o1)Cc1ccccc1,–,"inconclusive: 5.17 µM [activator, partial curve]"
CC1(C)OC(=O)C(=Cc2ccc[nH]2)C(=O)O1,inconclusive: -20.7%,–
Cc1cc2oc(C(=O)NCc3ccncc3)c(C)c2cc1C,–,"inconclusive: 29.1 µM [cytotoxic, single point]"
Cc1cccc(NC(=O)CSCC(=O)Nc2ccc(S(=O)(=O)N3CCCCC3)cc2)c1,inconclusive,–
O=C(COc1ccc(Cl)cc1Br)Nc1ccccc1N1CCCC1,inconclusive: 29.6%,–
COc1ccc(OCC(=O)OCC(=O)NC2CCCCC2C)cc1 (centres undefined),inactive: -7.59%,–
Cc1ccc2c(N)[nH]nc2n1,–,"inconclusive: 23.1 µM [activator, partial curve]"
COc1ccc(-c2noc3c2-c2nc(C4CCCCC4)sc2CC3)cc1,–,"inconclusive: 29.1 µM [activator, single point]"
Cn1c(CSCc2ccc(Cl)c(Cl)c2)nnc1SCC(=O)Nc1nccs1,–,"inconclusive: 9.2 µM [activator, partial curve]"
CCOC(=O)Cc1csc(NC(=O)CSc2nccn2C)n1,inconclusive: 20%,–
COc1cc(/C=C2\SC(=S)N(CCC(=O)N3CCN(C)CC3)C2=O)cc(OC)c1OC,–,"inconclusive: 5.8 µM [falling, single point]"
COC(=O)[C@@H](NC(=O)Nc1ccc2c(c1)OCCO2)C(C)C,inconclusive: -165%,–
CCCOC1CCCN(C(=O)c2ccc(OC)c(OC3CCN(C(C)C)CC3)c2)C1 (centres undefined),–,"inconclusive: 29.1 µM [activator, single point]"
CCN(CC(=O)NCc1cccs1)C(=O)c1cccc(S(=O)(=O)NCc2ccccc2)c1,inconclusive,–
O=C(CCn1cnnn1)Nc1ccc(Cl)cc1Cl,–,"inconclusive: 6.51 µM [activator, single point]"
CCC(=O)NCCCCNC(=O)CC,inconclusive: -12.1%,–

Structure (SMILES),"lipid storage change, negative = inhibition",Potency
CC(C)C(=O)Nc1c2c(nc3c1CCC3)CCCC2,inconclusive: 9.82%,–
CC(Oc1ccc(Cl)cc1)C(=O)NCCN1C(=O)S/C(=C\c2cccnc2)C1=O (centres undefined),inconclusive: -28.7%,–
COc1cc(C(=O)NCC(=O)Nc2ccc(F)c(F)c2)ccc1OCC(=O)N1CCOCC1,inconclusive: -11.5%,–
CC1(C)CC(=O)C(C(O)c2cccc([N+](=O)[O-])c2)C(C)(C)N1 (centres undefined),inconclusive: 91%,–
Cc1cccc(OCc2nnc(SCC(=O)OC3CCCCC3)o2)c1,inconclusive: -11.3%,–
CC(C)[C@H](NC(=O)[C@@H]1Cc2ccccc2CN1C(=O)OC(C)(C)C)C(=O)NCC1CCCO1 (some centres undefined),–,"inconclusive: 18.4 µM [activator, partial curve]"
Cc1ccc(C)c(OCC(=O)O/N=C(\N)c2ccccn2)c1,–,"inconclusive: 11.6 µM [falling, partial curve, poor fit]"
Cc1sc(NC(=O)CN(C(=O)c2ccccc2F)C2CCCC2)c(C(N)=O)c1C,–,"inconclusive: 29.1 µM [falling, single point]"
CCCN(CCC)CCNC(=O)C1CCN(S(=O)(=O)c2cccc3nsnc23)CC1,inconclusive: 8.93%,–
Cc1ccccc1COC(=O)CN1C(=O)NC2(CCCC2)C1=O,inconclusive,–
O=C(c1c(F)cccc1F)N(Cc1ccccn1)C1CCCC1,inconclusive: 4.15%,–
O=C(O)/C=C/c1ccc(S(=O)(=O)N(CCO)CCO)cc1,–,"inconclusive: 2.31 µM [falling, full curve, poor fit]"
C/C(=N\NC(=O)c1cc(C)nc2ccccc12)c1ccccn1,inconclusive: -91.4%,–
COc1ccc(NC(=O)Nc2ccccc2SC)cc1,inconclusive: -2.85% [at 9.22 µM],–
CCCCCCN=CC1=C(O)C(C(=O)OC)C(C)(C)CC1=O (centres undefined),inconclusive: -6.04%,–
Cc1ccc(NC(=O)CN(C)C(=O)CSc2nc(C)cc(C)n2)cc1,inconclusive,–
CCc1ccc(C(C)NC(=O)c2ccncc2)cc1 (centres undefined),inconclusive: -25.6%,–
Cc1noc(NS(=O)(=O)c2ccc(N/C=C\C(=O)c3cccc4ccccc34)cc2)c1C,inconclusive: -97.5%,–
NCCc1nnc(SCc2ccccc2)o1,inconclusive: -89.7%,–
O=C(NCCS(=O)(=O)NCc1ccc(F)cc1)c1ccc2c(c1)OCO2,inconclusive: -80.9%,–
Cc1ccc(C(=O)NCC(=O)OCc2nnc(-c3ccccc3)o2)cc1,–,"inconclusive: 29.1 µM [activator, single point]"
COc1ccc(/C(N)=N/OC(=O)CCC2CCCC2)cc1OC,–,"inconclusive: 5.8 µM [activator, full curve]"
S=C1NCCOCCOCCOCCNC(=S)N2CCOCCOCCN1CCOCCOCC2,inactive: 12.4%,–
O=C(CN1C(=O)c2ccccc2C1=O)NCC(=O)OCC(=O)c1cccc([N+](=O)[O-])c1,inconclusive: -17%,–

# 2 entries from above, set out differently:
Structure (SMILES) | lipid storage change, negative = inhibition | Potency
CC1(C)CC(=O)C(C(O)c2cccc([N+](=O)[O-])c2)C(C)(C)N1 (centres undefined) | inconclusive: 91% | –
Cc1cccc(OCc2nnc(SCC(=O)OC3CCCCC3)o2)c1 | inconclusive: -11.3% | –

# — PubChem BioAssay AID2685 (National Center for Advancing Translational Sciences (NCATS), 2010)
